Results as given in the supplement of paper PMC10849652.
The list shows a part of the results.

Sequences of proteins named here, by UniProt entry; tags and fusion partners are left off. A change or cut given only in a name is not applied to a line headed by its entry.
UniProt Q9H3L0: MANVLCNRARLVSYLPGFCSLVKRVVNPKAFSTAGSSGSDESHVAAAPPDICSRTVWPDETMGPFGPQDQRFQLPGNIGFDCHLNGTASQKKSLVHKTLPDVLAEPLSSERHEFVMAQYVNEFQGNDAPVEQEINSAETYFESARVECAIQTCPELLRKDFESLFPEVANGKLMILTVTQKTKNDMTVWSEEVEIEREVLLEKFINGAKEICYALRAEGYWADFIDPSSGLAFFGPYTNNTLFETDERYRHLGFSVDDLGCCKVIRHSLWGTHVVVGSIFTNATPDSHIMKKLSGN
UniProt Q86VX9: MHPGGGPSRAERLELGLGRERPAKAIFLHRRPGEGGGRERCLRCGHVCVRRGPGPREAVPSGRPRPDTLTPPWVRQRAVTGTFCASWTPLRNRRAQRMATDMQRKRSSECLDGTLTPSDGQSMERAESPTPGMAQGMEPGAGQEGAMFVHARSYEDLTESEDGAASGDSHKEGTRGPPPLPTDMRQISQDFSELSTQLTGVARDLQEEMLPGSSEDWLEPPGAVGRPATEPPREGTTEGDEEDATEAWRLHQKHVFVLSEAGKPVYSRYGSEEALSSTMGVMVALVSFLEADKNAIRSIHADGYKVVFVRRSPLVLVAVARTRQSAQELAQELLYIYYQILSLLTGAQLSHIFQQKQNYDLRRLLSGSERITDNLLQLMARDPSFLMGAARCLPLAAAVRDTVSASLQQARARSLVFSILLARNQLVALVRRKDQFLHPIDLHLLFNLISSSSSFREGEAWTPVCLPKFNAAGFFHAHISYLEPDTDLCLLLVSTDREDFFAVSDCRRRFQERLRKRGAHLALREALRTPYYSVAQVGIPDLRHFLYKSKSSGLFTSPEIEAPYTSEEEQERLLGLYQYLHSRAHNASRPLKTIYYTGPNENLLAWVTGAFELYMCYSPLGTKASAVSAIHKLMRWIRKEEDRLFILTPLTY
UniProt Q9NZW5: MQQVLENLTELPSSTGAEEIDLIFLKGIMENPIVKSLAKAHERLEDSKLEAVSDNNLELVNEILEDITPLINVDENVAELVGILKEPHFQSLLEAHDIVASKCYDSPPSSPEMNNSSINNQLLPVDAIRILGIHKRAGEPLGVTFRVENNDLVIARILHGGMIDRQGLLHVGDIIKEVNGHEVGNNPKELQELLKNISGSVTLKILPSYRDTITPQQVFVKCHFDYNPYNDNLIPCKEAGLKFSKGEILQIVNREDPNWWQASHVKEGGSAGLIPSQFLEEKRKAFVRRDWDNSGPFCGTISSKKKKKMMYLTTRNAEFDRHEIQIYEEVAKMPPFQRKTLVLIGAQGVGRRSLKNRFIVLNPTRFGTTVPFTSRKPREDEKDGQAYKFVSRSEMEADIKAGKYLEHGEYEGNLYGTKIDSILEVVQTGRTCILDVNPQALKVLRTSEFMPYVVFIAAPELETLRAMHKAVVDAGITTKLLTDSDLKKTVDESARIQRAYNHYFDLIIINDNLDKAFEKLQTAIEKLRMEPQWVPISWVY
UniProt Q9HCE1: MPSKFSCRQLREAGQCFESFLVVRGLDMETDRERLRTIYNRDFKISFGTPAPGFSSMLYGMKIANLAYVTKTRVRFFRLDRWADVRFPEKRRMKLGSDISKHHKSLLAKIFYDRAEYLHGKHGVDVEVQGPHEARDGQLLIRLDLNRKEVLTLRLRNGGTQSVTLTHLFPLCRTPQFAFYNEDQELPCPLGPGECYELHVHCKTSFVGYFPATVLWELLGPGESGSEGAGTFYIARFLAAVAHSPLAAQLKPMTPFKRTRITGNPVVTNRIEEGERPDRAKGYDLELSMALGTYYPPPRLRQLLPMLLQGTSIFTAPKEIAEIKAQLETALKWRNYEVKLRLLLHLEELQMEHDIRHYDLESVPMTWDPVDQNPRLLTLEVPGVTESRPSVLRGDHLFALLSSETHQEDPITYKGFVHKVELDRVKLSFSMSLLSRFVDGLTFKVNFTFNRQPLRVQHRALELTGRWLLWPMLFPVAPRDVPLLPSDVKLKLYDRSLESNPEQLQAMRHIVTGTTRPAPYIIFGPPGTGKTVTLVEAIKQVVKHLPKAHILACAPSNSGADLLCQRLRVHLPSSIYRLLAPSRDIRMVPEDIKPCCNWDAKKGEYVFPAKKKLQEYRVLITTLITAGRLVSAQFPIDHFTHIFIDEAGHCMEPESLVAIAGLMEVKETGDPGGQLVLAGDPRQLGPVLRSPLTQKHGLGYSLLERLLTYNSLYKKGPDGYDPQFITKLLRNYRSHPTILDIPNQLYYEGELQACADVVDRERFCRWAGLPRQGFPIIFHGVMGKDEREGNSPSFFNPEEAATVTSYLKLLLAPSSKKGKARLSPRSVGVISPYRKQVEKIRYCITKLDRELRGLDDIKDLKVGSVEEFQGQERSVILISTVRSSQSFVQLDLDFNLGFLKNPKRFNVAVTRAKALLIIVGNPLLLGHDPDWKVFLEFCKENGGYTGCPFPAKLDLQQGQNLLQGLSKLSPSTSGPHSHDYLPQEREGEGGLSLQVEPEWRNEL
UniProt Q96EY8: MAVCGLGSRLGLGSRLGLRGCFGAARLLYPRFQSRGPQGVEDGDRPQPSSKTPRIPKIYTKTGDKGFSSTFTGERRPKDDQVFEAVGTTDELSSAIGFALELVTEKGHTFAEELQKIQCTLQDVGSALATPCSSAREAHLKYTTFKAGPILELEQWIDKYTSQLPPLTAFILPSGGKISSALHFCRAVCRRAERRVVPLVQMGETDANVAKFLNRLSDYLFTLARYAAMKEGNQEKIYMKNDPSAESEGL
UniProt P39210: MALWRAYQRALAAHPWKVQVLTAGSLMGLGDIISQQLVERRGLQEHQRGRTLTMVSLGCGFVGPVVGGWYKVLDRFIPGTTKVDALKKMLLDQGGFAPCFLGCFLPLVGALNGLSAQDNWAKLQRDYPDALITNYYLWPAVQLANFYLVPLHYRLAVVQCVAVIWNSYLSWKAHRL
UniProt P40692: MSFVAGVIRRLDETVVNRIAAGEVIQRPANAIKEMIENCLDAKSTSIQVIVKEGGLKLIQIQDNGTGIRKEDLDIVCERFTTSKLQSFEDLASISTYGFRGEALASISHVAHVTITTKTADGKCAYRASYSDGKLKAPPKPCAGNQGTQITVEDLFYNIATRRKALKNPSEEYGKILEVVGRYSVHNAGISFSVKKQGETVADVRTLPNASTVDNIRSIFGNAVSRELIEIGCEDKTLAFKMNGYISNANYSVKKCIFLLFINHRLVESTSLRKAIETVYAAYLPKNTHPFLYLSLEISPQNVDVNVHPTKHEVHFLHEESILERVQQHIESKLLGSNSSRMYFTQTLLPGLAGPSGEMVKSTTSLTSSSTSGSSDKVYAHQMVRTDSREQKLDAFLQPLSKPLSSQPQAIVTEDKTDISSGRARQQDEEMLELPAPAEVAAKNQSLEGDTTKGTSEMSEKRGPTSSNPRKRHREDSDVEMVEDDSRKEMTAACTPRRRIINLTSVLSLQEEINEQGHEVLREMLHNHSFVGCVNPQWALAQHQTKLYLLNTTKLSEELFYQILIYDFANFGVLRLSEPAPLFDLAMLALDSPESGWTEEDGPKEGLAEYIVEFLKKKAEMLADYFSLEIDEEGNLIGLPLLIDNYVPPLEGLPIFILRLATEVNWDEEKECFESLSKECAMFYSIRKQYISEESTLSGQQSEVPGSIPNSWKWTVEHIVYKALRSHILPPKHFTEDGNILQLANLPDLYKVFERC
UniProt Q9UH92: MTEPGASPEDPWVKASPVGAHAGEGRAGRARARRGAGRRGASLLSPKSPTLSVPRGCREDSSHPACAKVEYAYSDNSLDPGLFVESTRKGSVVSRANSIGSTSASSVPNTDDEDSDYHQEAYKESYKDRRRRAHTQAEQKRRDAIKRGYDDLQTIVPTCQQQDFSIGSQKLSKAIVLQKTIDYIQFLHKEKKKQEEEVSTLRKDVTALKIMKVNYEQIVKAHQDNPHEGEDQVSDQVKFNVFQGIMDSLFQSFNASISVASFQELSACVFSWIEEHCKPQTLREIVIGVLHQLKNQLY
UniProt Q567V2: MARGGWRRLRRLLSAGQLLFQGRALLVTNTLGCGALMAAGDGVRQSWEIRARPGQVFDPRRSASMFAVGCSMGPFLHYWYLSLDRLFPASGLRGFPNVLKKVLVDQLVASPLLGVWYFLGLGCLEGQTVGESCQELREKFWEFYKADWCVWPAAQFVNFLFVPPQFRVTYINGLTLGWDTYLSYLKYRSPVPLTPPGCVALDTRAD
UniProt Q5TGZ0: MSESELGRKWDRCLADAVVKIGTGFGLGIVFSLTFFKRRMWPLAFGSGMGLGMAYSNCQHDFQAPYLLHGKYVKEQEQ
UniProt O00566: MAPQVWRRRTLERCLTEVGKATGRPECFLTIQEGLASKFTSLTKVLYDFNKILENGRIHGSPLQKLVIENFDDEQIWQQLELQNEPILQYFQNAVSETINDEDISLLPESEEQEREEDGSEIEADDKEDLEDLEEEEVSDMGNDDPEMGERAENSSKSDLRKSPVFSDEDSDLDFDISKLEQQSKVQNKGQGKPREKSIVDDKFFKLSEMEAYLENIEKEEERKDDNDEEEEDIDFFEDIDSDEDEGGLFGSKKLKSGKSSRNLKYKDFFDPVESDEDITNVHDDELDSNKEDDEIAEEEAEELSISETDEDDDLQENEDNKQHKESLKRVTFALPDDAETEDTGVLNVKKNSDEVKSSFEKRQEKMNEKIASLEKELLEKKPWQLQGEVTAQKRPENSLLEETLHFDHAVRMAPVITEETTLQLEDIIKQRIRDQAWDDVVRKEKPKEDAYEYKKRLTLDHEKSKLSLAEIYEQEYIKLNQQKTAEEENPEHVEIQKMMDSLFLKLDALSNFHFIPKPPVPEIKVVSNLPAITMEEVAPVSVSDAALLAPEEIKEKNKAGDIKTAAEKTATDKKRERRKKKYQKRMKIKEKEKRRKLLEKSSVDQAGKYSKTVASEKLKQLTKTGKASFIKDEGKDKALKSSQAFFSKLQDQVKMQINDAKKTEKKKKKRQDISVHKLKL
UniProt Q9Y3A3: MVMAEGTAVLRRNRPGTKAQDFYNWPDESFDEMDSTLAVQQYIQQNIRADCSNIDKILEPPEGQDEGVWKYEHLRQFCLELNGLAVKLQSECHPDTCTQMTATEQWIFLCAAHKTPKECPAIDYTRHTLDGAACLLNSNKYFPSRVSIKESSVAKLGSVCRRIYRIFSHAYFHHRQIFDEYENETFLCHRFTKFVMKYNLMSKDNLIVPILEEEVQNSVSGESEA
UniProt P08473: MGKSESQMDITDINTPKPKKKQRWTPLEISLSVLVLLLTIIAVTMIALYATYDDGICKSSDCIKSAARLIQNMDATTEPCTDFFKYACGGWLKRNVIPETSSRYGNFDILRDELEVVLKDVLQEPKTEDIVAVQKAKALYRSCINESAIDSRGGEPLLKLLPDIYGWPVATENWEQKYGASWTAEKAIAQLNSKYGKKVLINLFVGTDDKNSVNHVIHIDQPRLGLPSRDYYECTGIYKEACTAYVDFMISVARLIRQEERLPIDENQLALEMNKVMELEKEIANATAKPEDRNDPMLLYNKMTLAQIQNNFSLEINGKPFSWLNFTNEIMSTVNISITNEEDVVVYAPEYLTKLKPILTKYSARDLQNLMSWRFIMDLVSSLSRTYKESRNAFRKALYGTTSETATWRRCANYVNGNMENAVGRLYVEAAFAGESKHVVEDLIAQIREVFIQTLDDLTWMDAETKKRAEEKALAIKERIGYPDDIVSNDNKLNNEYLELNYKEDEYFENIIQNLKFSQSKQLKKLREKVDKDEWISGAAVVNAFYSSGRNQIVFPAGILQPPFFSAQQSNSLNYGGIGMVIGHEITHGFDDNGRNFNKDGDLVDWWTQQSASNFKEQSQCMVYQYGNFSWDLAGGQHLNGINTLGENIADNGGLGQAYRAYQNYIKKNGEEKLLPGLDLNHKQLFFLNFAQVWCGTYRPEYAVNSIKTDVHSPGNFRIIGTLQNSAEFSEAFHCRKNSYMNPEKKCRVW
UniProt P51948: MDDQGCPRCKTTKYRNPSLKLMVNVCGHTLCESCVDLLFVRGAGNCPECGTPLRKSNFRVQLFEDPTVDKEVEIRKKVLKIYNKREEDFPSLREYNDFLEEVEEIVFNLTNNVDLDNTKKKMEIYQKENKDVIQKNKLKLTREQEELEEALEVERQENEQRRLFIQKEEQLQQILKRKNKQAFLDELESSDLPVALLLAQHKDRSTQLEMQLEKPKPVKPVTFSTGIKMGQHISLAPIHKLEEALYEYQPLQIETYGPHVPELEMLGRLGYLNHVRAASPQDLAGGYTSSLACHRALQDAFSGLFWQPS

Legend:
Assay in all cases: log2 fold change, soluble protein after heating vs DMSO (PISA); higher = thermal stabilisation; K562 lysate, 10 uM; active = over 0.2 and 3.5 SD of the protein, either way, in both replicates (recomputed)
[1] = compound: C=CC(=O)N1CCC[C@@H](n2nc(-c3ccc(Oc4ccccc4)cc3)c3c(N)ncnc32)C1 [ibrutinib]
In short: (§1)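 K562 pellets were dounce-homogenised in PBS pH 7.4 containing 1 mM MgCl2, and the crude extract, at 1 mg/mL protein, was exposed to 10 μM compound for 30 min. Aliquots were heated for 3 min across 48°C-58°C, pooled, brought to 0.5% NP-40 at 4°C and spun at 21,000xg for 90 min, with the supernatant taken as soluble protein. TMTpro 16plex LC-MS/MS with equalised channel sums quantified that protein. Values are log-two fold changes in thermal stability relative to solvent controls, taken from duplicates.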

[2] = compound: CC(=O)c1cnc2ccc(-c3cc(Cl)c(O)c(Cl)c3)nc2c1N[C@H]1CC[C@H](CN(C)C)CC1
In short: as §1

[3] = compound: CC(C)(C)Cn1c(N)nc2ccc(-c3[nH]c(C(C)(C)C)nc3-c3ccc(F)cc3)nc21 [ralimetinib]
In short: as §1

[4] = compound: CC(C)(O)CC(=O)NCCn1ccc2ncnc(Nc3ccc(Oc4cccc(C(F)(F)F)c4)c(Cl)c3)c21
In short: as §1

[5] = compound: CC(C)C1=C2N=C(C=C(N2N=C1)NCC3=CC=CC=C3)NCCCCCCN
In short: as §1

[6] = compound: CC1=C(C(CC(=O)N1)C2=CC=C(C=C2)C(F)(F)F)C(=O)NC3=C(C=C4C(=C3)C=NN4)F
In short: as §1

[7] = compound: CC1=C(C2=C(C=C1)C(=O)C3=CC=CC=C3N2CCCN)C
In short: as §1

[8] = compound: CC1=C(C=C(C=C1)NC(=O)C2=CC(=CC=C2)C(C)(C)C#N)NC3=CC4=C(C=C3)N=CN(C4=O)C
In short: as §1

[9] = compound: CC1=C(C=C(C=C1)NC(=O)C2=CC(=CC=C2)N(C)C)NC(=O)C3=CC=C(C=C3)O
In short: as §1

[10] = compound: CC1=CC=C(C=C1)SC2=C3C=C(SC3=CN=C2)C(=O)N
In short: as §1

[11] = compound: CCCS(=O)(=O)Nc1ccc(F)c(C(=O)c2c[nH]c3ncc(-c4ccc(Cl)cc4)cc23)c1F [vemurafenib]
In short: as §1

[12] = compound: CCCS(=O)(=O)Nc1ccc(F)c(C(=O)c2c[nH]c3ncc(Cl)cc23)c1F
In short: as §1

[13] = compound: CCN(CCCOc1ccc2c(Nc3cc(CC(=O)Nc4cccc(F)c4)[nH]n3)ncnc2c1)CCOP(=O)(O)O [barasertib]
In short: as §1

[14] = compound: CC[C@@H]1C(=O)N(C)c2cnc(Nc3ccc(C(=O)NC4CCN(C)CC4)cc3OC)nc2N1C1CCCC1
In short: as §1

[15] = compound: CC[C@@H]1C(=O)N(C)c2cnc(Nc3ccc(C(=O)N[C@H]4CC[C@H](N5CCN(CC6CC6)CC5)CC4)cc3OC)nc2N1C(C)C [volasertib]
In short: as §1

[16] = compound: CCn1c(C(=O)N(C2CC2)C2CC2)cc2c3c(ncn3C)c(Nc3cc(C)n(C)n3)nc21
In short: as §1

[17] = compound: CCn1cc(-c2ccnc3[nH]c(-c4cccc(CN(C)C)c4)cc23)c(-c2ccc(NC(=O)N(C)C)cc2)n1
In short: as §1

[18] = compound: CN1CCC(CNc2ccc3ncc(-c4cccc(OC(F)(F)F)c4)n3n2)CC1
In short: as §1

[19] = compound: CN1CCN(CCOc2cc(OC3CCOCC3)c3c(Nc4c(Cl)ccc5c4OCO5)ncnc3c2)CC1 [saracatinib]
In short: as §1

[20] = compound: CN1CCN(c2nc(C3=C(c4c[nH]c5ccccc45)C(=O)NC3=O)c3ccccc3n2)CC1 [sotrastaurin]
In short: as §1

Measured: log2 fold change

MRPL20 (UniProt Q9BYC9)
inactive: [1] 0.067 | [2] -0.001 | [3] 0.003 | [4] 0.002 | [5] -0.032 | [6] -0.094 | [7] -0.098 | [8] 0.009 | [9] 0.01 | [10] 0.204 | [11] 0.009 | [12] -0.043 | [13] 0.003 | [14] 0.142 | [15] -0.007 | [16] 0.107 | [17] -0.011 | [18] -0.019 | [19] -0.006 | [20] 0

MMADHC (UniProt Q9H3L0)
inactive: [1] 0.007 | [2] -0.004 | [3] -0.017 | [4] -0.036 | [5] 0.048 | [6] 0.013 | [7] -0.037 | [8] 0.027 | [9] -0.008 | [10] -0.031 | [11] 0.077 | [12] 0.06 | [13] 0.017 | [14] 0.039 | [15] 0.005 | [16] -0.037 | [17] 0.057 | [18] -0.01 | [19] 0.022 | [20] -0.064

MON1A (UniProt Q86VX9)
inactive: [1] 0.013 | [2] 0.036 | [3] 0.089 | [4] -0.142 | [5] -0.024 | [6] 0.052 | [7] -0.045 | [8] -0.044 | [9] -0.027 | [10] 0.032 | [11] 0.022 | [12] 0.029 | [13] 0.008 | [14] 0.013 | [15] -0.072 | [16] 0.007 | [17] -0.234 | [18] 0.119 | [19] 0.012 | [20] -0.036

MPP6 (UniProt Q9NZW5)
inactive: [1] -0.017 | [2] 0.011 | [3] 0.004 | [4] -0.035 | [5] -0.001 | [6] 0.013 | [7] 0.02 | [8] -0.024 | [9] 0.018 | [10] 0.021 | [11] -0.003 | [12] 0.009 | [13] 0.008 | [14] 0.061 | [15] -0.032 | [16] 0.021 | [17] -0.002 | [18] -0.039 | [19] 0.024 | [20] 0.003

MOV10 (UniProt Q9HCE1)
inactive: [1] -0.009 | [2] -0.094 | [3] 0.023 | [4] -0.019 | [5] -0.008 | [6] 0.003 | [7] -0.046 | [8] -0.016 | [9] -0.012 | [10] 0.007 | [11] 0.003 | [12] 0.01 | [13] -0.005 | [14] -0.004 | [15] -0.003 | [16] 0.039 | [17] -0.034 | [18] 0.011 | [19] 0.007 | [20] 0.023

Two entries drawn at random from the list so far:
MON1A (UniProt Q86VX9)
inactive: [1] 0.013 | [2] 0.036 | [3] 0.089 | [4] -0.142 | [5] -0.024 | [6] 0.052 | [7] -0.045 | [8] -0.044 | [9] -0.027 | [10] 0.032 | [11] 0.022 | [12] 0.029 | [13] 0.008 | [14] 0.013 | [15] -0.072 | [16] 0.007 | [17] -0.234 | [18] 0.119 | [19] 0.012 | [20] -0.036

MMADHC (UniProt Q9H3L0)
inactive: [1] 0.007 | [2] -0.004 | [3] -0.017 | [4] -0.036 | [5] 0.048 | [6] 0.013 | [7] -0.037 | [8] 0.027 | [9] -0.008 | [10] -0.031 | [11] 0.077 | [12] 0.06 | [13] 0.017 | [14] 0.039 | [15] 0.005 | [16] -0.037 | [17] 0.057 | [18] -0.01 | [19] 0.022 | [20] -0.064

Next results follow.

MMAB (UniProt Q96EY8)
inactive: [1] -0.011 | [2] -0.002 | [3] -0.025 | [4] -0.025 | [5] -0.023 | [6] 0 | [7] -0.073 | [8] -0.042 | [9] 0.031 | [10] -0.007 | [11] 0.01 | [12] -0.034 | [13] 0.011 | [14] -0.009 | [15] 0.002 | [16] -0.01 | [17] -0.005 | [18] 0.034 | [19] 0.013 | [20] 0.008

MPV17 (UniProt P39210)
inactive: [1] 0.073 | [2] 0.03 | [3] 0.195 | [4] -0.07 | [5] 0.136 | [6] -0.211 | [7] -0.04 | [8] 0.175 | [9] -0.102 | [10] 0.018 | [11] -0.125 | [12] -0.07 | [13] 0.041 | [14] 0.036 | [15] 0.196 | [16] 0.019 | [17] -0.102 | [18] -0.02 | [19] -0.02 | [20] -0.152

MLH1 (UniProt P40692)
inactive: [1] 0.01 | [2] -0.009 | [3] 0.02 | [4] -0.035 | [5] -0.018 | [6] 0.017 | [7] -0.055 | [8] 0.014 | [9] -0.006 | [10] 0.03 | [11] 0.042 | [12] -0.039 | [13] 0.014 | [14] 0.013 | [15] -0.002 | [16] 0.014 | [17] -0.029 | [18] -0.023 | [19] 0.051 | [20] 0.02

MLX (UniProt Q9UH92)
inactive: [1] 0.047 | [2] -0.003 | [3] 0.008 | [4] -0.036 | [5] -0.017 | [6] -0.02 | [7] -0.076 | [8] 0.027 | [9] -0.062 | [10] 0.017 | [11] 0.07 | [12] -0.059 | [13] 0.3 | [14] -0.079 | [15] 0 | [16] 0 | [17] -0.209 | [18] 0.027 | [19] 0.092 | [20] -0.11

MPV17L2 (UniProt Q567V2)
inactive: [1] -0.032 | [2] -0.033 | [3] -0.009 | [4] -0.062 | [5] -0.023 | [6] 0.009 | [7] -0.006 | [8] 0.027 | [9] -0.045 | [10] 0.013 | [11] 0.013 | [12] -0.027 | [13] 0.016 | [14] 0.045 | [15] 0.103 | [16] 0.154 | [17] -0.068 | [18] 0.019 | [19] -0.011 | [20] 0.1

MICOS10 (UniProt Q5TGZ0)
inactive: [1] -0.106 | [2] 0.004 | [3] 0.047 | [4] -0.044 | [5] 0.026 | [6] -0.11 | [7] -0.031 | [8] 0.012 | [9] -0.036 | [10] 0.051 | [11] -0.165 | [12] -0.089 | [13] 0.118 | [14] -0.091 | [15] 0.111 | [16] 0.02 | [17] -0.009 | [18] 0.031 | [19] 0.027 | [20] -0.029

MPHOSPH10 (UniProt O00566)
inactive: [1] -0.013 | [2] 0.012 | [3] 0.035 | [4] 0.014 | [5] 0.06 | [6] -0.036 | [7] -0.02 | [8] 0.005 | [9] -0.029 | [10] 0.02 | [11] -0.016 | [12] 0.057 | [13] 0.072 | [14] 0.004 | [15] -0.003 | [16] 0.024 | [17] 0.125 | [18] -0.022 | [19] 0.072 | [20] -0.041

MOB4 (UniProt Q9Y3A3)
inactive: [1] -0.001 | [2] -0.014 | [3] 0.036 | [4] -0.03 | [5] -0.012 | [6] -0.013 | [7] 0.019 | [8] 0.015 | [9] -0.051 | [10] -0.033 | [11] -0.032 | [12] 0.049 | [13] -0.012 | [14] -0.052 | [15] 0.01 | [16] -0.043 | [17] -0.001 | [18] 0.025 | [19] 0.054 | [20] -0.022

MME (UniProt P08473)
inactive: [1] 0.286 | [2] -0.093 | [3] -0.117 | [4] -0.156 | [5] -0.012 | [6] -0.024 | [7] -0.23 | [8] 0.007 | [9] -0.025 | [10] -0.043 | [12] -0.092 | [13] -0.084 | [15] 0.001 | [16] 0.075 | [17] -0.044 | [18] 0.009 | [19] -0.114 | [20] 0.016

MRPL21 (UniProt Q7Z2W9)
inactive: [1] 0.023 | [2] 0.002 | [3] 0.015 | [4] -0.044 | [5] 0.026 | [6] -0.035 | [7] -0.028 | [8] 0.015 | [9] 0.01 | [10] 0.029 | [11] 0.015 | [12] -0.001 | [13] 0.012 | [14] -0.005 | [15] -0.012 | [16] -0.014 | [17] -0.025 | [18] -0.002 | [19] 0.019 | [20] -0.065

MNAT1 (UniProt P51948)
inactive: [1] 0.033 | [2] -0.029 | [3] 0.007 | [4] -0.035 | [5] 0.013 | [6] 0.014 | [7] -0.017 | [8] 0.047 | [9] -0.018 | [10] -0.016 | [11] 0.038 | [12] 0.011 | [13] -0.104 | [14] 0.021 | [15] 0.02 | [16] -0.018 | [17] -0.084 | [18] 0.09 | [19] 0.04 | [20] 0.054
